PubChem BioAssay AID1224828 – NIAID | 2016
Here is a random part of about 17,000 reagents tested. 762 of them (4.5%) count as active. 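Active calls include both raised and lowered p65 entry, mostly lowered; wells with fewer than 50 cells lack a z-score.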 The raw values are shown without normalisation. Reagent sequences are not shown.

Assay: 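Find genes required for NF-kappaB p65 moving into the nucleus after LPS in mouse macrophages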 (primary screen)
System: mouse RAW264.7 G9 macrophage reporter cells (GFP-p65, Tnf promoter-mCherry)
Knock-down reagent: siRNA pool against mouse genes, 100 nM
Time to read-out: 2 days siRNA transfection, then 40 min LPS before fixation
Conditions: LPS (Salmonella minnesota R595) at 10 ng/ml
Detection: 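Microscopy ratio of nuclear to perinuclear-ring GFP-p65 signal, scaled to the plate median; gene score is the average of two replicate robust z-scores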
Reading the numbers: p65 translocation robust z-score: higher = more nuclear NF-kappaB p65 after LPS than the plate median; nuclear/cytoplasmic p65 ratio: higher = more nuclear NF-kappaB p65
Rule for the call: 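Called active when z exceeds 3.3 or falls under -1.56 (median of Tlr4 controls), giving activity score of at least 50; no calls for control wells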
Calls: active = hit (p65 shift raised or lowered); inactive = no clear change

target | p65 translocation robust z-score | nuclear/cytoplasmic p65 ratio, rep 1 | nuclear/cytoplasmic p65 ratio, rep 2 | low cell count flag | call
Nt5c1b | 0.24 | 1.83 | 1.5 | enough cells to score | inactive
Actn3 | -0.52 | 1.6 | 1.49 | enough cells to score | inactive
Sprr3 | -0.49 | 1.31 | 1.21 | enough cells to score | inactive
Vgll2 | -0.86 | 1.24 | 1.16 | enough cells to score | inactive
Ncan | -1.32 | 1.42 | 1.53 | enough cells to score | inactive
Slc25a27 | -0.44 | 1.51 | 1.41 | enough cells to score | inactive
Pdgfrl | -0.84 | 1.37 | 1.27 | enough cells to score | inactive
Zfp474 | -0.04 | 1.25 | 1.3 | enough cells to score | inactive
Sry | -0.71 | 1.27 | 1.2 | enough cells to score | inactive
Gpsm2 | -0.62 | 1.43 | 1.48 | enough cells to score | inactive
Or52h9 | -0.23 | 1.41 | 1.17 | enough cells to score | inactive
Asns | 0.88 | 1.79 | 1.71 | enough cells to score | inactive
Wnt9b | -0.61 | 1.52 | 1.33 | enough cells to score | inactive
Fahd1 | 0.26 | 1.65 | 1.66 | enough cells to score | inactive
Btbd3 | 0.89 | 1.41 | 1.65 | enough cells to score | inactive
Id1 | – | 1.12 | 1.18 | fewer than 50 cells per well; well left out of scoring | inactive
Rps6kb2 | -0.33 | 1.56 | 1.39 | enough cells to score | inactive
Afmid | – | 1.42 | 1.34 | fewer than 50 cells per well; well left out of scoring | inactive
She | 0.22 | 1.43 | 1.6 | enough cells to score | inactive
Adar | -0.2 | 1.58 | 1.65 | enough cells to score | inactive
Smim12 | -1.05 | 1.33 | 1.77 | enough cells to score | inactive
Or8b46 | 1.58 | 1.72 | 1.36 | enough cells to score | inactive
Slc25a46 | 0.11 | 1.4 | 1.43 | enough cells to score | inactive
Nefh | -0.19 | 1.39 | 1.34 | enough cells to score | inactive

2 entries from above, reformatted:
target,p65 translocation robust z-score,"nuclear/cytoplasmic p65 ratio, rep 1","nuclear/cytoplasmic p65 ratio, rep 2",low cell count flag,call
Zfp474,-0.04,1.25,1.3,enough cells to score,inactive
Sry,-0.71,1.27,1.2,enough cells to score,inactive
